Laboratory results from paper PMC4014424.
No constants are given. Whether binding was seen depends on the method and setting. Binding seen in cells or lysates may run through a third protein. Some results given as binding are weak or reduced against the parent protein; the word gives no strength. Where a sequence is shown, tags or fusion partners need not be part of it.

Biological target: T1, biotin-tagged TR4 (orphan nuclear receptor TR4, NR2C2) (UniProt P49117)
T1 sequence (chain, biotin on the biotin recognition sequence (by birA biotin ligase)): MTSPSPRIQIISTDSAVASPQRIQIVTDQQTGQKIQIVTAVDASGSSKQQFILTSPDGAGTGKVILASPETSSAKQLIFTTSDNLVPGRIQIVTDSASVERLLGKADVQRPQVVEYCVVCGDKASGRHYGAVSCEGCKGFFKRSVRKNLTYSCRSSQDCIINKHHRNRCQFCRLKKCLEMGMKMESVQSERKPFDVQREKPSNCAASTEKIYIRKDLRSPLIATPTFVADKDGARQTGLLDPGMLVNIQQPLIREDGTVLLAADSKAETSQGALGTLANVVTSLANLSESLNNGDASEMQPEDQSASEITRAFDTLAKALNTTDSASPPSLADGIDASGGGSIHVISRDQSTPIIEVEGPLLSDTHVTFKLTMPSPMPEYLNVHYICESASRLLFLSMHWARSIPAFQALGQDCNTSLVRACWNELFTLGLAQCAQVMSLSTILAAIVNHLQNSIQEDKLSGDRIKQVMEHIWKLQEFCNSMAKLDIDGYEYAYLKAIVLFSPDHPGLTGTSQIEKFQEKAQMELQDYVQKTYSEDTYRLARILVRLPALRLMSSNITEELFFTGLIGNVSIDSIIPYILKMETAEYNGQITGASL
Assay: pull-down; streptavidin beads incubated overnight at 4°C with nuclear extracts of MEL cells expressing birA with or without (control) biotin-tagged TR4; washed with PBS plus 0.5% Tween20 and 1X Laemmli sample buffer; bound proteins immunoblotted

binding: binds
B1: TR2 (orphan nuclear receptor TR2, NR2C1) (protein, UniProt Q505F1 1-590)
chain: MATIEEIAHQIIDQQMGEIVTEQQTGQKIQIVTALDHSTQGKQFILANHEGSTPGKVFLTTPDAAGVNQLFFTSPDLSAPHLQLLTEKSPDQGPNKVFDLCVVCGDKASGRHYGAITCEGCKGFFKRSIRKNLVYSCRGSKDCVINKHHRNRCQYCRLQRCIAFGMKQDSVQCERKPIEVSREKSSNCAASTEKIYIRKDLRSPLAATPTFVTDSETARSAGLLDSGMFVNIHPSGIKTEPAMLMAPDKAESCQGDLSTLASVVTSLANLGKAKDLSHCGGDMPVVQSLRNGDTSFGAFHHDIQTNGDVSRAFDTLAKALTPGESSACQSPEEGMEGSPHLIAGEPSFVEKEGPLLSESHVAFRLTMPSPMPEYLNVHYIGESASRLLFLSMHWALSIPSFQALGQENSISLVKAYWNELFTLGLAQCWQVMNVATILATFVNCLHSSLQQDKMSPERRKSLMEHIFKLQEFCNSMVKLCIDGHEYAYLKAIVLFSPDHPGLENMELIERFQEKAYVEFQDYITRTYPDDTYRLSRLLLRLPALRLMNATITEELFFKGLIGNVRIDSVIPHILKMEPADYNSQIIGHSL
